In paper PMC8093901:
These are yes or no findings as the source states them, for the method shown. In cells and extracts the contact can be indirect. A result given as binding can be weak or reduced; the word gives no strength.

Target: T1, Citrine-Bcl-xL TM (213-233) (mouse) (UniProt Q64373)
T1 sequence: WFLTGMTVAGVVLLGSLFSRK
Test: co-IP; HEK293T cells coexpressing 3Myc-IPAS with Citrine-Bcl-xL TM or Citrine-Mcl-1 TM; extracts immunoprecipitated (antibody against FLAG or GFP per methods), western blotting

- binding: binds
Substance: 3Myc-IPAS (Inhibitory PAS domain protein)
